## Results of single-concentration screens

Sequences of proteins named here, by UniProt entry; tags and fusion partners are left off. Residues count along the entry.
UniProt P9WPC5, whole entry: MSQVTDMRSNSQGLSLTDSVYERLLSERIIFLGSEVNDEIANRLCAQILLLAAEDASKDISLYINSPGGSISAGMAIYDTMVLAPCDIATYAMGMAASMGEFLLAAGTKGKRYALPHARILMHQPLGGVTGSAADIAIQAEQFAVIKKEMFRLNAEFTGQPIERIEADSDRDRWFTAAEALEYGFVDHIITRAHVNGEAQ
UniProt P9WPC3, whole entry partner: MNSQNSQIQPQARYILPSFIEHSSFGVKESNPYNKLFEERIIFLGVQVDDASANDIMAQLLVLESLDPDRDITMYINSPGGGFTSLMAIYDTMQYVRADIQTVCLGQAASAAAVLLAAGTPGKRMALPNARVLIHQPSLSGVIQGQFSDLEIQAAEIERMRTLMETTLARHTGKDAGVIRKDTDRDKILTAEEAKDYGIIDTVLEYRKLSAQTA
UniProt P9WFT3, whole entry: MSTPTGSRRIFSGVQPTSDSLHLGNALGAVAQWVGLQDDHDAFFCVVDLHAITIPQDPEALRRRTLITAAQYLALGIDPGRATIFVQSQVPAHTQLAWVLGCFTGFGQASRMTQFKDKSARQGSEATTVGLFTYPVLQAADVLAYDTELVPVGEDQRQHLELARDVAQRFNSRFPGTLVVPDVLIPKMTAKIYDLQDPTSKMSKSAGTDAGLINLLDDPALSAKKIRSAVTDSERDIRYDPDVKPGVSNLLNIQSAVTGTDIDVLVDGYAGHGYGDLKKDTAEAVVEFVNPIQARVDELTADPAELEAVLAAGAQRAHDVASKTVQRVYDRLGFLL
UniProt I6X8D2, whole entry: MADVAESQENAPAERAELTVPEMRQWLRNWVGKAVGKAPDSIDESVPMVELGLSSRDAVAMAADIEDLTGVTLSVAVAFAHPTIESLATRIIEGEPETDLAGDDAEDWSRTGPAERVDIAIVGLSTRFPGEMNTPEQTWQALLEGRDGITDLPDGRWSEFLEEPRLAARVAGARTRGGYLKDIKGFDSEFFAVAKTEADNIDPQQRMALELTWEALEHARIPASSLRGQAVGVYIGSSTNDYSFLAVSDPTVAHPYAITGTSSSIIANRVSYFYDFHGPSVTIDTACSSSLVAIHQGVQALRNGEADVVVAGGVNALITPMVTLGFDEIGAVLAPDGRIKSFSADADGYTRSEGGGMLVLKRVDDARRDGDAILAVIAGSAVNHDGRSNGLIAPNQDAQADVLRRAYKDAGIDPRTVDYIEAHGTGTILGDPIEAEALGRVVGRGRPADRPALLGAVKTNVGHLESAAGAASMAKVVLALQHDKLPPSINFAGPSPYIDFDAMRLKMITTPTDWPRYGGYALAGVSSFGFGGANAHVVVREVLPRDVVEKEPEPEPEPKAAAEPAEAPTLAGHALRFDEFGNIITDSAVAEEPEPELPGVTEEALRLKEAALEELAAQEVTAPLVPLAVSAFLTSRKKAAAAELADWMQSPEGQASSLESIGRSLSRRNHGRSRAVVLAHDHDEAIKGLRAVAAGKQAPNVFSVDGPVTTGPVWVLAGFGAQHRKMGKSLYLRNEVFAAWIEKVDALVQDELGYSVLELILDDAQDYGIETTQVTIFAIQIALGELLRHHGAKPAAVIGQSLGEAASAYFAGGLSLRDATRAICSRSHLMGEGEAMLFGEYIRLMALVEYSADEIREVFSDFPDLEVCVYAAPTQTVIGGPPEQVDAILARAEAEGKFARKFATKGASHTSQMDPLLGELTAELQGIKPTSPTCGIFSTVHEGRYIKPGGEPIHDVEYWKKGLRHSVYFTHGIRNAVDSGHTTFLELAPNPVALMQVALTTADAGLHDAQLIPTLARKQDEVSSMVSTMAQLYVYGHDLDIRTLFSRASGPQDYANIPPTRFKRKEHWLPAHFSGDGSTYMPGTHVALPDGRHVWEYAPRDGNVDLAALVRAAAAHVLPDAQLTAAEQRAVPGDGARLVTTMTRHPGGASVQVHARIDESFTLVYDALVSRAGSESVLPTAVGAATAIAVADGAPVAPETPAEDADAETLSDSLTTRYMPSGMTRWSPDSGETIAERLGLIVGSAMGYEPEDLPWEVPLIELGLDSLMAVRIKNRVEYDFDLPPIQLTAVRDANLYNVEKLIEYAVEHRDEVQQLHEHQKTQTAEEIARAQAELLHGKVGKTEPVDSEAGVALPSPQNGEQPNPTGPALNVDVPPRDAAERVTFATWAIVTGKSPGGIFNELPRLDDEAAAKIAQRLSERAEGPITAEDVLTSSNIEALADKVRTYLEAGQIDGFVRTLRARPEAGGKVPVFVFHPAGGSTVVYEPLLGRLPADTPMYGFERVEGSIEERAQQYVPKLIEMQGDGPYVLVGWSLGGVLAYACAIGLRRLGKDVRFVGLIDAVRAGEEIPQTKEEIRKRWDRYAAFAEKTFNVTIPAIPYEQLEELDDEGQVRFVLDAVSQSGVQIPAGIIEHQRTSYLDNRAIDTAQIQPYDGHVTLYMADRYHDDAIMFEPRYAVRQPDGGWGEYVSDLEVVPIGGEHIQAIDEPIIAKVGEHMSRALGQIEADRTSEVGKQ
UniProt Q8IDJ8, 1-583: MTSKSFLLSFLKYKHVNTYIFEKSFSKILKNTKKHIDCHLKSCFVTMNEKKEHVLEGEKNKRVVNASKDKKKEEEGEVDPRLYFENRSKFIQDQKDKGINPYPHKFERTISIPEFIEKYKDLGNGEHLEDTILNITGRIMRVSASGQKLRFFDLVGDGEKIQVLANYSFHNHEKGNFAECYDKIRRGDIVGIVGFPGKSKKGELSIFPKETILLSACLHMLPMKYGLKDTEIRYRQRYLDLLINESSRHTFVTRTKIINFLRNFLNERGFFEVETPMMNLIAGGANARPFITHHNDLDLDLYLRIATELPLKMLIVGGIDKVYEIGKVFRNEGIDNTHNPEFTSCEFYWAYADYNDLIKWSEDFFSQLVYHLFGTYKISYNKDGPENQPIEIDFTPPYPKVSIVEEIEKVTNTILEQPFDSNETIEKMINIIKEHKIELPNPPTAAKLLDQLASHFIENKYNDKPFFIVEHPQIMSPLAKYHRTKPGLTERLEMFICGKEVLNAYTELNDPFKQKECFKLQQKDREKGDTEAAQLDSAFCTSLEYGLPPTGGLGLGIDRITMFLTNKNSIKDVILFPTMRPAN

ClpP1P2: 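Protease assay of ClpP1P2, read by the AMC dye that it sets free. Target: ClpP1P2, Mycobacterium tuberculosis (UniProt P9WPC5 and UniProt P9WPC3). Compounds at 50 µM. Direction is inferred from only a few compounds that gave an IC50; most scored high, so higher reads as stronger inhibition. Most other retested compounds had strongly negative values. About 69,000 compounds were tested under these conditions; 0.015% (about 10) showed 50% or more at least once.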
MtTrpRS: 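Tryptophan-tRNA ligase, Mycobacterium tuberculosis (UniProt P9WFT3). Enzyme assay of tryptophanyl-tRNA synthetase; the read-out is not stated. Compounds at 10 µM. Direction is not recorded; retested compounds ran higher, which suggests that high means inhibition. Of about 65,000 compounds tested this way, about 64 (0.098%) reached 50% or more in at least one test.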
Pks13 thioesterase: 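Polyketide synthase Pks13, Mycobacterium tuberculosis (UniProt I6X8D2). Enzyme assay of the thioesterase domain of polyketide synthase 13; the read-out is not stated. Concentration: 30 µM. The record gives no direction; the compounds picked for IC50 retests had high values, so higher reads as stronger inhibition. Size under these conditions: about 67,000 compounds, about 300 of them at 50% or above in at least one test.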
PfKRS1: 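Lysine-tRNA ligase, Plasmodium falciparum 3D7 (UniProt Q8IDJ8). Enzyme assay of the cytosolic lysyl-tRNA synthetase in 384-well plates, read by luminescence. Tested at 30 µM. Higher reads as stronger inhibition, judged from the few compounds that gave an IC50. Size under these conditions: about 69,000 compounds, about 49 of them at 50% or above in at least one test.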

Each number is a percent effect as filed.
How 0% and 100% were set is not recorded. Most values in the screen are low, and negative values occur.
The compounds are a random part of those screened.
A dash means the value is not listed here; it may have been measured.

| Compound | ClpP1P2 | MtTrpRS | Pks13 thioesterase | PfKRS1 |
|---|---|---|---|---|
| `CCCc1nc(C(=O)N2C[C@H](CO)C[C@H](CN3CCOCC3)C2)cs1` | -12.75% | 3.722% | 2.73% | 6.335% |
| `COc1ccc(F)cc1C(C(=O)O)N1CCCN(C2CCCC2)CC1` (stereo not drawn) | -10.23% | -2.422% | -29.91% | 2.452% |
| `CC1=C(C(=O)N2CCOC(Cc3cccc(C(F)(F)F)c3)C2)OCCO1` (stereo not drawn) | -11.29% | -1.106% | -40.6% | 3.858% |
| `CC(C)c1nnc(NCc2cc3n(n2)CCN(C2CCCCC2)C3)s1` | -6.438% | -1.365% | -23.53% | 9.099% |
| `CC1=C[C@@H](CN2CCN(C)CC2)[C@H](C(C)C)C[C@H]1Cc1nnc(C)o1` | -9.771% | -0.2288% | -35.53% | 6.142% |
| `OCC(O)CN1CCc2onc(-c3ccc(C(F)(F)F)cc3)c2C1` (stereo not drawn) | -8.334% | 3.311% | -4.862% | -3.16% |
| `NC(=O)C1CCN(C(=O)c2ccccc2OCc2ccccc2Cl)CC1` | -4.373% | 5.013% | -5.984% | -0.1701% |
| `O=C(c1ccncc1)N1C[C@@H](OCc2cccnc2)[C@H]2OCCC[C@H]21` | -5.95% | -4.185% | 1.001% | 8.362% |
| `CCn1cnc(NC(=O)N2CCC(c3ccc(F)cc3)C2)n1` (stereo not drawn) | -0.506% | 0.6399% | - | 1.84% |
| `CC(C)c1cc(CN2CCC(N)CC2)on1` | 11.37% | - | -17.86% | 1.788% |
| `CNC(=O)Cc1noc(-c2cc3c(s2)CCCC3)n1` | 5.156% | 1.65% | -25.12% | 2.818% |
| `O=C(c1ccc(S(=O)(=O)NCC(F)F)cc1)N1CC[C@H]2CNC[C@H]21` | 8.089% | 1.348% | -11.7% | 4.606% |
| `O=C(NCc1nnc2n1CCC2)c1cn(-c2cccc(Br)c2)nn1` | -12.41% | -0.9524% | -13.11% | 7.342% |
| `CCS(=O)(=O)CC(=O)NC(C)c1ccc(F)cc1F` (stereo not drawn) | -7.225% | -2.341% | -5.616% | 2.626% |
| `Cc1cccc(C2(CNC(=O)C(C)NC(N)=O)CCCC2)c1` (stereo not drawn) | 4.345% | 2.386% | -3.204% | 7.656% |
| `N#CC1C(=O)Nc2c(cnn2C2CCCC2)C12CCCC2` (stereo not drawn) | 6.396% | 1.09% | -4.726% | 5.404% |
| `O=C(NCC(O)CN1CCc2ccccc2C1)Nc1cccnc1` (stereo not drawn) | 4.191% | 1.016% | -26.64% | 4.965% |
| `C=C(C)CNC(C)c1ccc(S(C)(=O)=O)c(F)c1` (stereo not drawn) | -2.433% | -1.14% | 38.33% | 1.608% |
| `Cn1nc2c(cc1=O)CN(Cc1nc(C(C)(C)C)no1)CC2` | -6.881% | 5.997% | -2.801% | 70.12% |
| `CCOCC1CN(C(=O)c2cccnc2)Cc2cnn(C)c21` (stereo not drawn) | -15.91% | -8.245% | -4.335% | -0.09435% |
| `CNc1cc(C)nc(N2C[C@@H](C(=O)O)[C@H](C3CC3)C2)n1` | -6.494% | 0.6054% | -6.953% | 2.177% |
| `CNC(=O)[C@@H]1C[C@H]2CN(Cc3ccc(C)s3)C[C@H]2N1C(C)=O` | 14.03% | -4.478% | -29.35% | 2.322% |
| `Cc1cc2c(=O)n3c(nc2s1)CCN(Cc1[nH]cnc1C)CC3` | -2.304% | - | -4.919% | 1.753% |
| `CN(C)C(=O)N1CC[C@@H](O)[C@@H]1Cc1ccccc1` | 4.566% | -3.98% | -11.49% | 1.714% |
| `CC(C)CCNC(=O)C1CCCN1C(=O)Nc1cccc(F)c1` (stereo not drawn) | 21.45% | 3.357% | -7.659% | 3.31% |
| `CC(C)c1cc(C(F)(F)F)n2nc(C3CCN(S(C)(=O)=O)C3)cc2n1` (stereo not drawn) | -13.41% | -4.285% | 3.577% | 0.5691% |
| `N#Cc1cccnc1NCCc1cc(F)cc2c1OCOC2` | 2.656% | -9.796% | -12.92% | -0.9889% |
| `COCc1cccc(S(=O)(=O)Nc2ncc(C)s2)c1` | -4.649% | 6.715% | -10.61% | 1.609% |
| `CCOc1cccc(CNC(=O)NC2CC=CC2)c1OC(F)F` | -6.613% | -9.044% | -11.91% | -1.269% |
| `Cc1nnc(N2CCCC3(CN(Cc4cnn(C)c4)CCO3)C2)o1` (stereo not drawn) | -14.55% | 0% | -23.7% | 2.373% |
| `COc1ccc(CC(=O)N2CCCC(n3nc(C)cc3C)C2)cc1` (stereo not drawn) | -13.41% | -1.605% | -0.6666% | 0.02631% |
| `Cc1c(I)cccc1C(=O)NCc1ncc[nH]1` | 1.463% | -5.353% | 9.616% | 0.3307% |
| `CCSc1ccc(C(=O)N2CC[C@](C)(O)[C@H](C)C2)s1` | -9.396% | -12.84% | -11.3% | 0.1397% |
| `CCS(=O)(=O)N1CCc2ccc(NC(=O)NC3CCCCC3)cc21` | 3.1% | 5.576% | 6.02% | 2.431% |
| `CCC(=O)Nc1ccc(C(C)NC(=O)COCCOC)cc1` (stereo not drawn) | -3.037% | 2.86% | -25.27% | 4.446% |
| `O=C(NC1CCCC1)N1C[C@H]2CN(c3ccncc3)C[C@@]2(C(=O)O)C1` | -5.235% | -3.865% | -17.16% | -4.712% |
| `Cc1nn(C)c(C)c1C1CCCN1C(=O)Cc1cn2ccsc2n1` (stereo not drawn) | 9.987% | -1.342% | -23.44% | 4.86% |
| `COCCCC1(CO)CCCN(CCc2ccccc2)C1` (stereo not drawn) | -19.71% | -1.212% | -11.65% | -2.492% |
| `CCOC(C)c1nccn1Cc1cc(C)on1` (stereo not drawn) | 3.203% | -2.508% | 1.006% | 3.771% |
| `O=C(c1ccccc1)N1Cc2nccn2CC(Cn2ncccc2=O)C1` (stereo not drawn) | -21.07% | -5.231% | -21.69% | -1.816% |
| `COc1cccc(CN2CCCCCC2c2cccs2)c1O` (stereo not drawn) | -21.73% | -3.638% | 29.98% | 5.373% |
| `O=C(NCCc1cccs1)[C@]12COC[C@H]1CN(C1CCOCC1)C2` | -9.026% | -4.497% | 16.79% | 12.2% |
| `COCC1CN(C(=O)c2cccn2C)Cc2ncnn2C1` (stereo not drawn) | -3.236% | -2.403% | -14.17% | 1.269% |
| `Cc1noc(C2CN(CC(=O)NCC3CCCO3)C2)n1` (stereo not drawn) | -2.938% | 0.6839% | -30.99% | 1.935% |
| `CCN1CCN(C(=O)C(C)n2cc(Br)cn2)CC1` (stereo not drawn) | -8.569% | -4.663% | -2.74% | 1.954% |
| `Cc1ccc(Cn2ccc(NS(C)(=O)=O)n2)cc1` | 1.608% | 1.408% | -16.22% | 1.335% |
| `c1ccc(COC[C@H]2CC[C@H]3[C@H](CCN3Cc3cccnc3)O2)nc1` | -8.618% | -3.412% | -5.516% | 2.38% |
| `O=C(CN1CCNC1=O)N1CCc2nnc(-c3ccccc3)n2CC1` | -6.002% | 3.576% | -6.148% | 1.487% |
| `CC1=C(C(=O)N2CCCC(Cn3cc(CO)nn3)C2)OCCO1` (stereo not drawn) | -17.28% | -2.252% | -10.11% | 1.759% |
| `Cc1nc(N(C)C)nc(C)c1NS(=O)(=O)c1ccc(F)cc1F` | 1.609% | -1.917% | -6.353% | 3.549% |
| `CCCc1cc(C(=O)Nc2nc(SC)ns2)[nH]n1` | -22.67% | 0.7524% | -1.803% | -0.3787% |
| `O=C(NCCc1cccs1)[C@]12COC[C@H]1CN(Cc1ccccn1)C2` | 21.09% | 10.22% | 7.096% | -2.965% |

5 of the entries, repeated:

{"compound": "Cc1nnc(N2CCCC3(CN(Cc4cnn(C)c4)CCO3)C2)o1", "stereo": "stereo not drawn", "ClpP1P2": -14.55, "MtTrpRS": 0, "Pks13 thioesterase": -23.7, "PfKRS1": 2.373}
{"compound": "CC(C)CCNC(=O)C1CCCN1C(=O)Nc1cccc(F)c1", "stereo": "stereo not drawn", "ClpP1P2": 21.45, "MtTrpRS": 3.357, "Pks13 thioesterase": -7.659, "PfKRS1": 3.31}
{"compound": "OCC(O)CN1CCc2onc(-c3ccc(C(F)(F)F)cc3)c2C1", "stereo": "stereo not drawn", "ClpP1P2": -8.334, "MtTrpRS": 3.311, "Pks13 thioesterase": -4.862, "PfKRS1": -3.16}
{"compound": "O=C(c1ccccc1)N1Cc2nccn2CC(Cn2ncccc2=O)C1", "stereo": "stereo not drawn", "ClpP1P2": -21.07, "MtTrpRS": -5.231, "Pks13 thioesterase": -21.69, "PfKRS1": -1.816}
{"compound": "COCCCC1(CO)CCCN(CCc2ccccc2)C1", "stereo": "stereo not drawn", "ClpP1P2": -19.71, "MtTrpRS": -1.212, "Pks13 thioesterase": -11.65, "PfKRS1": -2.492}

The values are deposited in ChEMBL (CHEMBL3988442, “University of Dundee, Small-Polar-MMV Screening Library” (2021)).